Measured values published in the supplement of paper PMC3682954.
Where “and” joins values, the source holds several entries; their conditions need not be identical. Equal values may be shown once. Where a name gives a salt, the structure may show the parent alone. ± gives the standard deviation of the averaged measurements. The list shows a part of the results. Repeats are few or missing, and single values can be far off.

Tested on: RAW 264.7
Assay: cell viability (MTT) relative to vehicle control; higher = more viable cells
Conditions: stimulus: HMGB1 5 ug/ml, 18 h
[1] = compound concentration: 1 ug/ml

| Compound | cell viability (compound concentration: 3 uM) | cell viability [1] [%] |
| --- | --- | --- |
| C[C@H]1COc2c(N3CCN(C)CC3)c(F)cc3c(=O)c(C(=O)O)cn1c23 | 102 ± 4.1% |  |
| C[C@H]1COc2c(N3CCN(C)CC3)c(F)cc3c(=O)c(C(=O)O)cn1c23 [Levofloxacin] | 102% |  |
| NC(CO)C(=O)NNCc1ccc(O)c(O)c1O (stereo not given) [Benserazide hydrochloride] | 87.2 ± 7.9% |  |
| NC(CO)C(=O)NNCc1ccc(O)c(O)c1O (stereo not given) [Benserazide] | 86.3% |  |
| NC(CO)C(=O)NNCc1ccc(O)c(O)c1O (stereo not given) | 111% |  |
| Nc1nc(O)c2ncn(CCC(CO)CO)c2n1 | 97.5% |  |
| Nc1nc(O)c2ncn(CCC(CO)CO)c2n1 [Penciclovir] | 104 ± 12% |  |
| Fc1ccc([C@@H]2CCNC[C@H]2COc2ccc3c(c2)OCO3)cc1 [Paroxetine hydrochloride hemihydrate (MW = 374.83)] | 109% |  |
| Fc1ccc([C@@H]2CCNC[C@H]2COc2ccc3c(c2)OCO3)cc1 [Paroxetine Hydrochloride] | 89.5% |  |
| Fc1ccc([C@@H]2CCNC[C@H]2COc2ccc3c(c2)OCO3)cc1 | 98.9% |  |
| Fc1ccc([C@@H]2CCNC[C@H]2COc2ccc3c(c2)OCO3)cc1 [Paroxetine] | 103 ± 15% |  |
| O=c1[nH]cnc2c1ncn2[C@H]1CC[C@@H](CO)O1 [Didanosine] | 104 ± 2.6% |  |
| O=c1[nH]cnc2c1ncn2[C@H]1CC[C@@H](CO)O1 | 99.6% |  |
| CN(C/C=C/C#CC(C)(C)C)Cc1cccc2ccccc12 | 112% and 97.7% |  |
| CN(C/C=C/C#CC(C)(C)C)Cc1cccc2ccccc12 [Terbinafine] | 118% |  |
| NCC[C@H](O)C(=O)N[C@@H]1C[C@H](N)[C@@H](O[C@H]2O[C@H](CN)[C@@H](O)[C@H](O)[C@H]2O)[C@H](O)[C@H]1O[C@H]1O[C@H](CO)[C@@H](O)[C@H](N)[C@H]1O | 107% |  |
| NCC[C@H](O)C(=O)N[C@@H]1C[C@H](N)[C@@H](O[C@H]2O[C@H](CN)[C@@H](O)[C@H](O)[C@H]2O)[C@H](O)[C@H]1O[C@H]1O[C@H](CO)[C@@H](O)[C@H](N)[C@H]1O [Amikacin hydrate] | 117% |  |
| O=C1c2cccc3c2[C@H](CCC3)CN1[C@@H]1CN2CCC1CC2 | 101% |  |
| Cc1cc2nc3c(=O)[nH]c(=O)nc-3n(CC(O)C(O)C(O)COP(=O)(O)O)c2cc1C (stereo not given) | 97.6% |  |
| COc1cc(/C=C/C(=O)CC(=O)/C=C/c2ccc(O)c(OC)c2)ccc1O [Curcumine] |  | 96.1 |
| O=C1C(SCCO)=C(SCCO)C(=O)c2ccccc21 | 25.2% |  |
| CC1CC2(C)Oc3ccccc3C3OCC1(COC(=O)Nc1ccccc1)C(C)C32 (stereo not given) |  | 94.2 |

| Compound | cell viability (compound concentration: 3 uM) | cell viability [1] [%] |
| --- | --- | --- |
| OCCN1C[C@H](O)[C@@H](O)[C@H](O)[C@H]1CO | 98.7 ± 10% |  |
| OCCN1C[C@H](O)[C@@H](O)[C@H](O)[C@H]1CO [Miglitol] | 81.8% |  |
| CC1(C)CCC2=C(O1)c1ccccc1C(=O)C2=O [beta-Lapachone] | 92.7% |  |
| CC(=O)OCC[N+](C)(C)C [Acetylcholine] | 121% |  |
| CC(=O)OCC[N+](C)(C)C | 108% |  |
| CC(C)C(=O)Nc1ccc([N+](=O)[O-])c(C(F)(F)F)c1 | 107% |  |
| CC(C)C(=O)Nc1ccc([N+](=O)[O-])c(C(F)(F)F)c1 [Flutamide] | 101 ± 9% |  |
| Cn1cnc([N+](=O)[O-])c1Sc1ncnc2[nH]cnc12 [Azathioprine] | 96.5 ± 5.6% |  |
| Cn1cnc([N+](=O)[O-])c1Sc1ncnc2[nH]cnc12 | 102 ± 8.3% |  |
| COc1cc2c(cc1OC)-c1c(OC)c(OC)cc3ccnc(c13)C2=O [Oxoglaucine] |  | 86.3 |
| CC1COc2c(N3CCN(C)CC3)c(F)cc3c(=O)c(C(=O)O)cn1c23 (stereo not given) | 103% |  |
| CC1COc2c(N3CCN(C)CC3)c(F)cc3c(=O)c(C(=O)O)cn1c23 (stereo not given) [Ofloxacin] | 105 ± 5.2% |  |
| N[C@@H](CSSC[C@H](N)C(=O)O)C(=O)O | 115% |  |
| COCC(=O)Nc1c(I)c(C(=O)NCC(O)CO)c(I)c(C(=O)N(C)CC(O)CO)c1I (stereo not given) [Iopromide] | 72.3% |  |
| C[C@@]1(O)CCOC(=O)C1 [Mevalonic-D, L acid lactone] | 109% |  |
| O=C[C@H](O)[C@@H](O)[C@H](O)[C@H](O)CO[C@@H]1O[C@H](CO)[C@@H](O)[C@H](O)[C@H]1O [Gentiobiose] |  | 101 |
| CCOC(=O)Nc1ccc(NCc2ccc(F)cc2)nc1N [Flupirtine maleate] | 110% |  |
| COc1cn([C@@H]2O[C@H](CO)[C@@H](O)[C@H]2O)c(=O)[nH]c1=O [5-Methoxyuridine] |  | 94.5 |
| O=C(O)CCCC[C@@H]1SC[C@@H]2NC(=O)N[C@@H]21 [Biotin] | 114% | 97.2 |
| O=C(O)CCCC[C@@H]1SC[C@@H]2NC(=O)N[C@@H]21 | 101% |  |
| COC(=O)C1=C(C)NC(C)=C(C(=O)OC(C)C)C1c1cccc2nonc12 (stereo not given) | 94% |  |
| COC(=O)C1=C(C)NC(C)=C(C(=O)OC(C)C)C1c1cccc2nonc12 (stereo not given) [Isradipine] | 71.4% |  |

| Compound | cell viability (compound concentration: 3 uM) | cell viability [1] [%] |
| --- | --- | --- |
| CC(C)(C)OC(=O)N[C@@H](Cc1cnc[nH]1)C(=O)O [N-alpha-(tert-Butoxycarbonyl)-L-histidine] |  | 97.7 |
| CC(=O)SCC(Cc1ccccc1)C(=O)NCC(=O)OCc1ccccc1 (stereo not given) | 95.6% |  |
| CC(=O)SCC(Cc1ccccc1)C(=O)NCC(=O)OCc1ccccc1 (stereo not given) [Racecadotril] | 109 ± 5.5% |  |
| C[C@H](CCC(=O)O)[C@H]1CC[C@H]2[C@@H]3CC[C@@H]4C[C@H](O)CC[C@]4(C)[C@H]3CC[C@]12C [Lithocholic acid] | 91.7% | 123 |
| O=C(O)/C=C/c1cnc[nH]1 [4-Imidazoleacrylic acid] | 110% |  |
| O=C(O)/C=C/c1cnc[nH]1 [Urocanic acid] |  | 103 |
| COCCc1ccc(OCC(O)CNC(C)C)cc1 (stereo not given) | 110% |  |
| COCCc1ccc(OCC(O)CNC(C)C)cc1 (stereo not given) [Metoprolol] | 94.5% |  |
| CC(C)(C)NC[C@H](O)COc1ccccc1C1CCCC1 [Penbutolol sulfate] | 84.3% |  |
| COc1ccc(C(=O)c2ccccc2O)c(O)c1 | 99.6% |  |
| COc1ccc(C(=O)c2ccccc2O)c(O)c1 [Dioxybenzone] | 95.2% |  |
| COC1=CC(=O)C=C(OC)C1=O | 82.4% |  |
| CC(C)Cc1ccc(C(C)C(=O)O)cc1 (stereo not given) [Ibuprofen] | 84.4% |  |
| CC(C)Cc1ccc(C(C)C(=O)O)cc1 (stereo not given) | 98.9% |  |
| COc1cc2c(cc1OC)C(=O)N(C)CC2 [N-methylcorydaldine] |  | 90.9 |
| COc1ccc(CN2CCN(C(c3ccc(F)cc3)c3ccc(F)cc3)CC2)c(OC)c1OC [Lomerizine] | 103% |  |
| COc1ccc(CN2CCN(C(c3ccc(F)cc3)c3ccc(F)cc3)CC2)c(OC)c1OC | 95.8% |  |
| O=C(O)C1(C(=O)O)CCC1.[NH2-].[NH2-].[Pt+2] [Carboplatin] | 99.46 ± 0.23% |  |
| O=C(O)C1(C(=O)O)CCC1.[NH2-].[NH2-].[Pt+2] | 105 ± 6% |  |
| O=c1c(O)c(-c2ccc(O)c(O)c2)oc2cc(O)cc(O)c12 [Quercetin dihydrate] | 101% |  |
| CC(=O)Nc1cccc(O)c1 | 112% |  |
| Cc1cnc(C(=O)O)c[n+]1[O-] [Acipimox] | 100 ± 8.7% |  |

Single entries from the entries so far.
cell viability (compound concentration: 3 uM) with COCCc1ccc(OCC(O)CNC(C)C)cc1 (stereo not given) [Metoprolol] reads 94.5%
cell viability (compound concentration: 3 uM) with COc1ccc(C(=O)c2ccccc2O)c(O)c1 reads 99.6%

(continued)

| Compound | cell viability (compound concentration: 3 uM) | cell viability [1] [%] |
| --- | --- | --- |
| COC(=O)C(N)Cc1ccc(Cl)cc1 (racemic) [DL-p-Chlorophenylalanine methyl ester hydrochloride] | 98.5% |  |
| N[C@H](C(=O)O)[C@H]1C[C@@H]1C(=O)O [(2S,1'S,2'S)-2-(carboxycyclopropyl)glycine] | 106% |  |
| CC1=C(C/C=C(\C)CCC[C@H](C)CCC[C@H](C)CCCC(C)C)C(=O)c2ccccc2C1=O [Phylloquinone; phytonadione; Vitamin K_1] |  | 127 |
| CC1=C(C/C=C(\C)CCC[C@H](C)CCC[C@H](C)CCCC(C)C)C(=O)c2ccccc2C1=O | 99.6% |  |
| O=C(OCCOCCO)c1ccccc1Nc1cccc(C(F)(F)F)c1 [Etofenamate] | 114% |  |
| O=C(O)[C@H]1/C(=C/CO)O[C@@H]2CC(=O)N21 [Potassium clavulanate] | 101% |  |
| CCOC(=O)[N-]c1c[n+](N2CCOCC2)no1 | 97.7% |  |
| CCOC(=O)[N-]c1c[n+](N2CCOCC2)no1 [Molsidomine] | 97.5 ± 13% |  |
| CO[C@H]1[C@H](O)[C@@H](O)[C@@H](O)[C@H](O)[C@@H]1O [D-Pinitol ;  3-O-Methyl-D-chiro-inositol] |  | 91.3 |
| CC[N+](CC)(CC)CCOc1cccc(OCC[N+](CC)(CC)CC)c1OCC[N+](CC)(CC)CC [Gallamine triethiodide] | 105 ± 3.8% |  |
| CC[N+](CC)(CC)CCOc1cccc(OCC[N+](CC)(CC)CC)c1OCC[N+](CC)(CC)CC | 109% |  |
| NS(=O)(=O)c1cc2c(cc1Cl)NC(CC1CCCC1)NS2(=O)=O (stereo not given) [Cyclopenthiazide] | 78.2% |  |
| O=C(O)CCCCC1CCSS1 (racemic) [(±)-alpha-Lipoic Acid] | 111% |  |
| O=C(O)CCCCC1CCSS1 (racemic) [DL-Thioctic acid] |  | 107 |
| CC(C)(C)NCC(O)c1cc(O)cc(O)c1 (stereo not given) | 97.7% |  |
| CC(C)(C)NCC(O)c1cc(O)cc(O)c1 (stereo not given) [Terbutaline hemisulfate] | 106 ± 14% |  |
| C#C[C@]1(O)CC[C@H]2[C@@H]3CCC4=C(CCC(=O)C4)[C@H]3CC[C@@]21C [Norethynodrel] | 106% |  |
| C#C[C@]1(O)CC[C@H]2[C@@H]3CCC4=C(CCC(=O)C4)[C@H]3CC[C@@]21C | 104% |  |
| C=C(c1ccc(C(=O)O)cc1)c1cc2c(cc1C)C(C)(C)CCC2(C)C [Bexarotene] | 131% |  |
| CC/C(=C(\c1ccccc1)c1ccc(OCCN(C)C)cc1)c1ccccc1 | 94.1% |  |
| CC/C(=C(\c1ccccc1)c1ccc(OCCN(C)C)cc1)c1ccccc1 [Tamoxifen citrate] | 102 ± 10% |  |
| CC/C(=C(\c1ccccc1)c1ccc(OCCN(C)C)cc1)c1ccccc1 [Tamoxifen] | 104 ± 4.9% |  |

Some of the entries so far, with bars between the fields:
Compound | cell viability (compound concentration: 3 uM) | cell viability [1] [%]
COc1cc(/C=C/C(=O)CC(=O)/C=C/c2ccc(O)c(OC)c2)ccc1O [Curcumine] |  | 96.1
O=C1C(SCCO)=C(SCCO)C(=O)c2ccccc21 | 25.2% | 
